For two molecules, binding results are on record in patent publication US20220251217A1 (University of California, published 2022).

The test concerns the target Fc protein (Fc-domain-only) (human). Nature of the test: flow cytometry of nanobody-displaying yeast with recombinant Fc protein. (In general: In flow cytometry, cells or beads pass a laser one at a time.)

These are yes or no findings as the source states them, for the method shown.

B1: Nb.B5 (VHH)
VHH: QVQLQESGGGLVQAGGSLRLSCAASGTIFPVDYMGWYRQAPGKERELVAGINYGSNTYYADSVKGRFTISRDNAKNTVYLQMNSLKPEDTAVYYCAAWQPEGYAVDFYHPYWGQGTQVTVSS
As for B1, the binding entry is listed as “no binding”.

B2: Nb.C2 (VHH)
VHH: QVQLQESGGGLVQAGGSLRLSCAASGTIFDWYSMGWYRQAPGKERELVAGIDTGANTYYADSVKGRFTISRDNAKNTVYLQMNSLKPEDTAVYYCAAHDDGDPWHVYWGQGTQVTVSS
notes: also called yeast clone Nb.C2
Regarding B2, the binding result was “no binding (tested: 10 nM)”.
